Measurements: patent publication US20210163308A1, “COMPOSITIONS AND METHODS FOR THE MODULATION OF CYTOKINES” (GALLEON LABS LLC, priority 2018, published 2021)

Test system: primary human cells (HDFSAg, HDF3CGF, KF3CT, HDFLPS systems)
Test: Study CSM003-01-b: biomarker readouts in primary human cell systems, compounds in PBS
Conditions: p<0.01, outside of the envelope, effect size of at least 20%

Structure (SMILES)	number of annotated biomarkers
O.O.O.O.O.O.[Cl-].[Cl-].[Sr+2] [Strontium chloride hexahydrate]	6
O=[N+]([O-])[O-].O=[N+]([O-])[O-].[Sr+2] [Strontium nitrate, Strontium Nitrate]	4
